Part of at least one peptide drawing is inferred or uncertain, most often the ends. Where no end group is shown, it is not given here.
Target: T1, purified human P-selectin (Homo sapiens, UniProt P16109)
T1 construct: P-selectin is isolated from human platelet lysates; from tissue; host or cells: outdated human platelet packs (platelet lysates)
T1 sequence (P16109 42-830): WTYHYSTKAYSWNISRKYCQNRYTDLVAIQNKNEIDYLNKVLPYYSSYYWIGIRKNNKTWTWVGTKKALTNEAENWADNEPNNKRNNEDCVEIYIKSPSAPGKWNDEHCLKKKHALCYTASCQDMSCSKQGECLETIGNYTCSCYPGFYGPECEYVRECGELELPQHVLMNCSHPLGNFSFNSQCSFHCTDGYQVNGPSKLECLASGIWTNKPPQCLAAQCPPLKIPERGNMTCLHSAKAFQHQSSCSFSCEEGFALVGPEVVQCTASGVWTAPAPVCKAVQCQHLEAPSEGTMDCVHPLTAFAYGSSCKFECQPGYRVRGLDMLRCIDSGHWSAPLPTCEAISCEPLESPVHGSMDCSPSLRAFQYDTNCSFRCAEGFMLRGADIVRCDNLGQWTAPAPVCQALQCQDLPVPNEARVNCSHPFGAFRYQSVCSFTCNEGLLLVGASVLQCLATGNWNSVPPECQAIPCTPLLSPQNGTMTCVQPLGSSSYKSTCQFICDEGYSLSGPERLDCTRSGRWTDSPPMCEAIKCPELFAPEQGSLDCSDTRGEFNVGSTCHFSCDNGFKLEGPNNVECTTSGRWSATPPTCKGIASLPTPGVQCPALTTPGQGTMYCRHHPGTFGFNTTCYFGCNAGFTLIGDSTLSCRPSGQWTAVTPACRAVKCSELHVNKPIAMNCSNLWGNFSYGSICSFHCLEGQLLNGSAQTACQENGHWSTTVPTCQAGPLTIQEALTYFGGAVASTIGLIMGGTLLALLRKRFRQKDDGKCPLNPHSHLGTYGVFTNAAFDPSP
Test: Neutrophil adhesion to purified P-selectin immobilized on plastic wells
Assay type: cell-based
Conditions: result in words
Text: Peptides can be screened for their ability to inhibit adhesion to cells, for example, neutrophil adhesion to purified P-selectin immobilized on plastic wells, using the assay described by Geng, et al., Nature 343, 757-760 (1990).
Human neutrophils are isolated from heparinized whole blood by density gradient centrifugation on Mono-Poly resolving media, Flow Laboratories. Neutrophil suspensions are greater than 98% pure and greater than 95% viable by trypan blue exclusion. For adhesion assays, neutrophils are suspended at a concentration of 2×10^6 cells/mL in Hanks' balanced salt solution containing 1.26 mM Ca^2+ and 0.81 mM Mg^2+ (HBSS, Gibco) with […] human serum albumin (HBSS/HSA). Adhesion assays are conducted in triplicate in 96-well microtiter plates, Corning, incubated at 4° C. overnight with 50 microliters of various protein solutions.
P-selectin is isolated from human platelet lysates by immunoaffinity chromatography on antibody S12-Sepharose™ and ion-exchange chromatography on a Mono-Q™ column (FLPC, Pharmacia Fine Chemicals), as follows. […]
Bound P-selectin is eluted from the S12 Affigel with 100 mL of 80% ethylene glycol, 1 mM MES pH 6.0, 0.01% Lubrol PX. Peak fractions with absorbance at 280 nm are pooled. […]

Row | Substance | inhibit the adhesion of human neutrophils to purified human P-selectin (FIG. I)
1 | NRYTDLVAI-NH2 [SEQ ID NO: 2, Asn-Arg-Tyr-Thr-Asp-Leu-Val-Ala-Ile-NH2] | inhibit the adhesion
2 | RYTDLVAI-NH2 [SEQ ID NO: 1, Arg-Tyr-Thr-Asp-Leu-Val-Ala-Ile-NH2] | inhibit the adhesion

Reference: patent US5602230A, “Peptide inhibitors of selectin binding” (Centocor, Inc., priority 1995, dated 1997)
